Data as given in patent publication US20230406833A1, “HERBICIDAL MALONAMIDES” (BASF SE, priority 2020, published 2023).
Some results were stated once for a whole list of compounds, not compound by compound.

Legend:
Format in all cases: in vivo
Avena fatua (AVEFA) = assay: greenhouse post-emergence herbicidal test; settings: scale from 0 to 100
[1] = system: Amaranthus retroflexus (AMARE); assay: greenhouse post-emergence herbicidal test; settings: scale from 0 to 100
[2] = system: Apera spica-venti (APESV); assay: greenhouse pre-emergence herbicidal test; settings: 0.250 kg/ha, scale from 0 to 100
Setaria faberi (SETFA) = assay: greenhouse pre-emergence herbicidal test; settings: scale from 0 to 100
[3] = system: Echinocloa crus-galli (ECHCG); assay: greenhouse pre-emergence herbicidal test; settings: scale from 0 to 100
Setaria viridis (SETVI) = assay: greenhouse post-emergence herbicidal test; settings: scale from 0 to 100
[4] = system: Echinocloa crus-galli (ECHCG); assay: greenhouse post-emergence herbicidal test; settings: scale from 0 to 100
[5] = system: Abutilon theophrasti (ABUTH); assay: greenhouse post-emergence herbicidal test; settings: scale from 0 to 100

For `O=C(O)CCCNC(=O)C1(C(=O)Nc2cc(F)cc(F)c2)CCO1` (stereo not drawn) [I.126], the “herbicidal activity against AVEFA” value (Avena fatua (AVEFA); 0.0625 kg/ha) was “very good (a very good herbicidal activity is given at values of 90 to 100)” and the “herbicidal activity against AMARE” value ([1]; 0.0625 kg/ha) was “very good (a very good herbicidal activity is given at values of 90 to 100)”.
With `CC(CC(=O)O)NC(=O)C1(C(=O)Nc2cc(Cl)cc(Cl)c2)C=CCO1` (stereo not drawn) [I.82] the “herbicidal activity against APESV” value [2] was “very good (a very good herbicidal activity is given at values of 90 to 100)”, the “herbicidal activity against SETFA” value (Setaria faberi (SETFA); 0.250 kg/ha) was “very good (a very good herbicidal activity is given at values of 90 to 100)” and the “herbicidal activity against ECHCG” value ([3]; 0.250 kg/ha) was “good (A good herbicidal activity is given at values of 70 to <90)”. The “herbicidal activity against SETVI” value (Setaria viridis (SETVI); 0.250 kg/ha) was “very good (a very good herbicidal activity is given at values of 90 to 100)”, the “herbicidal activity against AVEFA” value (Avena fatua (AVEFA); 0.250 kg/ha) was “very good (a very good herbicidal activity is given at values of 90 to 100)” and the “herbicidal activity against ECHCG” value ([4]; 0.250 kg/ha) was “very good (a very good herbicidal activity is given at values of 90 to 100)”.
With `COC(=O)CC(CNC(=O)C1(C(=O)Nc2cc(F)cc(F)c2)CCO1)OC` (stereo not drawn) [I.149] the “herbicidal activity against APESV” value [2] was “very good (a very good herbicidal activity is given at values of 90 to 100)”, the “herbicidal activity against ECHCG” value ([3]; 0.250 kg/ha) was “good (A good herbicidal activity is given at values of 70 to <90)” and the “herbicidal activity against SETVI” value (Setaria viridis (SETVI); 0.250 kg/ha) was “very good (a very good herbicidal activity is given at values of 90 to 100)”. The “herbicidal activity against AVEFA” value (Avena fatua (AVEFA); 0.250 kg/ha) was “very good (a very good herbicidal activity is given at values of 90 to 100)” and the “herbicidal activity against ECHCG” value ([4]; 0.250 kg/ha) was “very good (a very good herbicidal activity is given at values of 90 to 100)”.
In the case of `COC(=O)[C@H]1CC[C@@H](NC(=O)C2(C(=O)Nc3cc(F)cc(F)c3)CCO2)C1` (stereo partly drawn) [I.156], the “herbicidal activity against APESV” value [2] is reported as “very good (a very good herbicidal activity is given at values of 90 to 100)”, the “herbicidal activity against ECHCG” value ([3]; 0.250 kg/ha) is reported as “good (A good herbicidal activity is given at values of 70 to <90)” and the “herbicidal activity against SETVI” value (Setaria viridis (SETVI); 0.250 kg/ha) is reported as “very good (a very good herbicidal activity is given at values of 90 to 100)”. For the same compound, the “herbicidal activity against AVEFA” value (Avena fatua (AVEFA); 0.250 kg/ha) was “very good (a very good herbicidal activity is given at values of 90 to 100)” and the “herbicidal activity against ECHCG” value ([4]; 0.250 kg/ha) was “very good (a very good herbicidal activity is given at values of 90 to 100)”.
For `COC(=O)C1=CCC(NC(=O)C2(C(=O)Nc3cc(F)cc(F)c3)CCO2)C1` (stereo not drawn) [I.152], the “herbicidal activity against APESV” value [2] was “very good (a very good herbicidal activity is given at values of 90 to 100)”, the “herbicidal activity against SETVI” value (Setaria viridis (SETVI); 0.250 kg/ha) was “very good (a very good herbicidal activity is given at values of 90 to 100)” and the “herbicidal activity against AVEFA” value (Avena fatua (AVEFA); 0.250 kg/ha) was “very good (a very good herbicidal activity is given at values of 90 to 100)”. For the same compound, the “herbicidal activity against ECHCG” value ([4]; 0.250 kg/ha) was “very good (a very good herbicidal activity is given at values of 90 to 100)”.
For `COCCOC(=O)CCC(C)NC(=O)C1(C(=O)Nc2cc(F)cc(F)c2)CCO1` (stereo not drawn) [I.155], the “herbicidal activity against APESV” value [2] was “very good (a very good herbicidal activity is given at values of 90 to 100)”, the “herbicidal activity against SETVI” value (Setaria viridis (SETVI); 0.250 kg/ha) was “very good (a very good herbicidal activity is given at values of 90 to 100)” and the “herbicidal activity against AVEFA” value (Avena fatua (AVEFA); 0.250 kg/ha) was “very good (a very good herbicidal activity is given at values of 90 to 100)”. The “herbicidal activity against ECHCG” value ([4]; 0.250 kg/ha) was “very good (a very good herbicidal activity is given at values of 90 to 100)”.
With `COC(=O)C1=CC[C@H](NC(=O)C2(C(=O)Nc3cc(Cl)cc(Cl)c3)C=CCO2)C1` (single isomer, unassigned) [I.192] the “herbicidal activity against AVEFA” value (Avena fatua (AVEFA); 0.250 kg/ha) was “good (A good herbicidal activity is given at values of 70 to <90)”.
With `CC(C)OC(=O)C1C=CC(NC(=O)C2(C(=O)Nc3cc(Cl)cc(Cl)c3)CCCO2)C1` (stereo not drawn) [I.112] the “herbicidal activity against APESV” value [2] was “very good (a very good herbicidal activity is given at values of 90 to 100)”, the “herbicidal activity against SETVI” value (Setaria viridis (SETVI); 0.250 kg/ha) was “very good (a very good herbicidal activity is given at values of 90 to 100)” and the “herbicidal activity against AVEFA” value (Avena fatua (AVEFA); 0.250 kg/ha) was “very good (a very good herbicidal activity is given at values of 90 to 100)”. The “herbicidal activity against ECHCG” value ([4]; 0.250 kg/ha) was “very good (a very good herbicidal activity is given at values of 90 to 100)”.
`COC(=O)[C@H](CNC(=O)C1(C(=O)Nc2cc(F)cc(F)c2)CCO1)OC` (stereo partly drawn) [I.148] was tested, and the “herbicidal activity against AVEFA” value (Avena fatua (AVEFA); 0.250 kg/ha) was “good (A good herbicidal activity is given at values of 70 to <90)”.
`COC(=O)C1CCC(NC(=O)C2(C(=O)Nc3cc(F)cc(F)c3)C=CCO2)CC1` (stereo not drawn) [I.101] was tested, and the “herbicidal activity against AVEFA” value (Avena fatua (AVEFA); 0.250 kg/ha) was “good (A good herbicidal activity is given at values of 70 to <90)” and the “herbicidal activity against AMARE” value ([1]; 0.250 kg/ha) was “very good (a very good herbicidal activity is given at values of 90 to 100)”.
For `CC(C)OC(=O)C1C=CC(NC(=O)C2(C(=O)Nc3cc(Cl)cc(C#N)c3)C=CCO2)C1` (mixture of isomers) [I.189], the “herbicidal activity against APESV” value [2] was “good (A good herbicidal activity is given at values of 70 to <90)”, the “herbicidal activity against ECHCG” value ([3]; 0.250 kg/ha) was “good (A good herbicidal activity is given at values of 70 to <90)” and the “herbicidal activity against ABUTH” value ([5]; 0.250 kg/ha) was “good (A good herbicidal activity is given at values of 70 to <90)”. For the same compound, the “herbicidal activity against SETVI” value (Setaria viridis (SETVI); 0.250 kg/ha) was “very good (a very good herbicidal activity is given at values of 90 to 100)” and the “herbicidal activity against ECHCG” value ([4]; 0.250 kg/ha) was “very good (a very good herbicidal activity is given at values of 90 to 100)”.
In the case of `COC(=O)C1=CC[C@H](NC(=O)C2(C(=O)Nc3cc(F)cc(F)c3)C=CCO2)C1` (stereo partly drawn) [I.102], the “herbicidal activity against APESV” value [2] is reported as “very good (a very good herbicidal activity is given at values of 90 to 100)”, the “herbicidal activity against SETFA” value (Setaria faberi (SETFA); 0.250 kg/ha) is reported as “very good (a very good herbicidal activity is given at values of 90 to 100)” and the “herbicidal activity against ECHCG” value ([3]; 0.250 kg/ha) is reported as “very good (a very good herbicidal activity is given at values of 90 to 100)”. For the same compound, the “herbicidal activity against AVEFA” value (Avena fatua (AVEFA); 0.250 kg/ha) was “very good (a very good herbicidal activity is given at values of 90 to 100)”, the “herbicidal activity against ECHCG” value ([4]; 0.250 kg/ha) was “very good (a very good herbicidal activity is given at values of 90 to 100)” and the “herbicidal activity against AMARE” value ([1]; 0.250 kg/ha) was “very good (a very good herbicidal activity is given at values of 90 to 100)”.
In the case of `COC(=O)[C@@H]1C=C[C@H](NC(=O)C2(C(=O)Nc3cc(Cl)cc(Cl)c3)CCCO2)C1` (stereo partly drawn) [Compound I16, methyl (1S,4R)-4-[[2-[(3,5-dichlorophenyl)carbamoyl]tetrahydrofuran-2-carbonyl]amino]cyclopent-2-ene-1-carboxylate], the “herbicidal activity against SETFA” value (Setaria faberi (SETFA); 0.500 kg/ha) is reported as “very good (a very good herbicidal activity is given at values of 90 to 100)”, the “herbicidal activity against ECHCG” value ([3]; 0.500 kg/ha) is reported as “very good (a very good herbicidal activity is given at values of 90 to 100)” and the “herbicidal activity against ABUTH” value ([5]; 0.500 kg/ha) is reported as “very good (a very good herbicidal activity is given at values of 90 to 100)”. For the same compound, the “herbicidal activity against SETVI” value (Setaria viridis (SETVI); 0.500 kg/ha) was “very good (a very good herbicidal activity is given at values of 90 to 100)” and the “herbicidal activity against ECHCG” value ([4]; 0.500 kg/ha) was “very good (a very good herbicidal activity is given at values of 90 to 100)”.
With `CS(=O)(=O)NC(=O)CCCNC(=O)C1(C(=O)Nc2cc(F)cc(F)c2)CCO1` (stereo not drawn) [I.135] the “herbicidal activity against APESV” value [2] was “good (A good herbicidal activity is given at values of 70 to <90)”, the “herbicidal activity against SETVI” value (Setaria viridis (SETVI); 0.250 kg/ha) was “very good (a very good herbicidal activity is given at values of 90 to 100)” and the “herbicidal activity against AVEFA” value (Avena fatua (AVEFA); 0.250 kg/ha) was “very good (a very good herbicidal activity is given at values of 90 to 100)”. The “herbicidal activity against AMARE” value ([1]; 0.250 kg/ha) was “very good (a very good herbicidal activity is given at values of 90 to 100)”.
